Experimental data reported in the supplement of paper PMC10849652.
The list shows a part of the results.

Sequences of proteins named here, by UniProt entry; tags and fusion partners are left off. A change or cut given only in a name is not applied to a line headed by its entry.
UniProt Q9HCJ3: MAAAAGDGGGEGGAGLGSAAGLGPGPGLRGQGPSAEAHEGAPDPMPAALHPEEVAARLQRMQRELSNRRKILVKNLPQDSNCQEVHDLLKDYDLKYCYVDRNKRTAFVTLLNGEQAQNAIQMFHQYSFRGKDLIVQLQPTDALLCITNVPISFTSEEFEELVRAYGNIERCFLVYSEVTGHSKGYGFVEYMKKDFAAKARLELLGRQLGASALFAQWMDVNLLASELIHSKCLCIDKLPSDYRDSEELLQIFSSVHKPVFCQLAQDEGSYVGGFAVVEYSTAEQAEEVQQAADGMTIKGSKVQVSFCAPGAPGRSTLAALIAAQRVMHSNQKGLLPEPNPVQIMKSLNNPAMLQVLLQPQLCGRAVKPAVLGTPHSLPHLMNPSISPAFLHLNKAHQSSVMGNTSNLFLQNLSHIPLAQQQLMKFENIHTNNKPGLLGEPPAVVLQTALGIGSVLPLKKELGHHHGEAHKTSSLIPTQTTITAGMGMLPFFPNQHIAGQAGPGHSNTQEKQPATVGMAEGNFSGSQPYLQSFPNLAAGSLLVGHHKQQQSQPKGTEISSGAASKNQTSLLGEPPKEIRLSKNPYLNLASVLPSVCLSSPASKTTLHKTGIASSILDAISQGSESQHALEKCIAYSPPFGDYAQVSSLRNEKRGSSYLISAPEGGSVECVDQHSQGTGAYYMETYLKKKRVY
UniProt Q5RL73: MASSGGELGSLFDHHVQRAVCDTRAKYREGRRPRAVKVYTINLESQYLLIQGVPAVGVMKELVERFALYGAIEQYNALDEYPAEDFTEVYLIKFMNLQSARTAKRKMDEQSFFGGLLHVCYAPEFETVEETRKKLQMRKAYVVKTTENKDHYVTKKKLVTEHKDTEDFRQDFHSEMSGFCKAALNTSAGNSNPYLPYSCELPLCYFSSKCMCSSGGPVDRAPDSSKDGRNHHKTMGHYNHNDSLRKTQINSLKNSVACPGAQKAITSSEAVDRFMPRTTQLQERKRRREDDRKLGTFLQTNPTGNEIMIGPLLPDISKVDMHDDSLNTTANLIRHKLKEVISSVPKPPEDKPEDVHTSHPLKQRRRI
UniProt Q09028, whole entry, looked up: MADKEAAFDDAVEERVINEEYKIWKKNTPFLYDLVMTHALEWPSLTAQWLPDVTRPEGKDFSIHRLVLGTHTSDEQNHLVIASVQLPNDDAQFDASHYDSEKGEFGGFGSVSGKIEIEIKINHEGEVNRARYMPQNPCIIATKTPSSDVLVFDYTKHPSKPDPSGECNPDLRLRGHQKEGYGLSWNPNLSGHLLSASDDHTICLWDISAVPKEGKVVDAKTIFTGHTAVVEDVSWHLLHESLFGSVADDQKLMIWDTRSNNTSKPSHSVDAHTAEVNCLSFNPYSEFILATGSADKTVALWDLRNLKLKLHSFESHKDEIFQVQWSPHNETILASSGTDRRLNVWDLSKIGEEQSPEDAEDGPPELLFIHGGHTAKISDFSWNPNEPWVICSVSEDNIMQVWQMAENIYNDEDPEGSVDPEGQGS
UniProt Q96H35: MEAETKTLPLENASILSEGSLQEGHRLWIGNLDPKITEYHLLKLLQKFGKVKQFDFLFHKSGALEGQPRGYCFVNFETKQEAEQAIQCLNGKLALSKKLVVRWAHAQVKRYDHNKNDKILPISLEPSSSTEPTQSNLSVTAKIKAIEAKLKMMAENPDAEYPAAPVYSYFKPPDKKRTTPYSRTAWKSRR
UniProt Q8N1G1: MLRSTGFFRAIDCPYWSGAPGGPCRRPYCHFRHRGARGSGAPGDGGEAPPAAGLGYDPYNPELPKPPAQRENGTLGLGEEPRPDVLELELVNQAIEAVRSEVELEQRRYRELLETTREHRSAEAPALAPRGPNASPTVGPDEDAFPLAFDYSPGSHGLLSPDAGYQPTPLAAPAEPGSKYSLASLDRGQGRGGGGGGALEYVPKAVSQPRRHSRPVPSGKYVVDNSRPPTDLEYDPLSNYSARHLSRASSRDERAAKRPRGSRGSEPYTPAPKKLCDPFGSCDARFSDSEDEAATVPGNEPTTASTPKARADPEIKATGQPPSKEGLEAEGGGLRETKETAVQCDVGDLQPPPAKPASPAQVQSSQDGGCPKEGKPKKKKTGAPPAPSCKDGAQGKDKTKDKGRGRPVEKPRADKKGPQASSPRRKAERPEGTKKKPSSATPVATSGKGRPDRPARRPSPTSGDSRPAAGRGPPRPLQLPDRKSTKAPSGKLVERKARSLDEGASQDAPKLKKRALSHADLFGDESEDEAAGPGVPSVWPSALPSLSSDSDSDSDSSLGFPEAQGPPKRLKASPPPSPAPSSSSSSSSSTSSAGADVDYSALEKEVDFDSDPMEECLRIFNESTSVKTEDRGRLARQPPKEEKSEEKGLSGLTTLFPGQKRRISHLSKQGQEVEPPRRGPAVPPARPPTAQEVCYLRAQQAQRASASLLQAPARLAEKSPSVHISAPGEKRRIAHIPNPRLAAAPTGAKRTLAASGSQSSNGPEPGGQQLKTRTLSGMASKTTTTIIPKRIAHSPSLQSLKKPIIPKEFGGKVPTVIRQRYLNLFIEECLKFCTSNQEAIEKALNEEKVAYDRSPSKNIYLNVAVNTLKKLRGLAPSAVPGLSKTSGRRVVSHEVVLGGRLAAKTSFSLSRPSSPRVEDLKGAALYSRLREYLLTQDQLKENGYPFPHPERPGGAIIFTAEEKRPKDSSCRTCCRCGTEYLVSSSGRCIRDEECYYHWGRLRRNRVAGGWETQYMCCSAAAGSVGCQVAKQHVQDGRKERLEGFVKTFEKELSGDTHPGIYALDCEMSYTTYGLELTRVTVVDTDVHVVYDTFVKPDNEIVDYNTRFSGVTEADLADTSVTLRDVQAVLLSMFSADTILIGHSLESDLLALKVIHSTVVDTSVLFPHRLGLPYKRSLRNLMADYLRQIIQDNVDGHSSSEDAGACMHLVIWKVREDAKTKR
UniProt O43251: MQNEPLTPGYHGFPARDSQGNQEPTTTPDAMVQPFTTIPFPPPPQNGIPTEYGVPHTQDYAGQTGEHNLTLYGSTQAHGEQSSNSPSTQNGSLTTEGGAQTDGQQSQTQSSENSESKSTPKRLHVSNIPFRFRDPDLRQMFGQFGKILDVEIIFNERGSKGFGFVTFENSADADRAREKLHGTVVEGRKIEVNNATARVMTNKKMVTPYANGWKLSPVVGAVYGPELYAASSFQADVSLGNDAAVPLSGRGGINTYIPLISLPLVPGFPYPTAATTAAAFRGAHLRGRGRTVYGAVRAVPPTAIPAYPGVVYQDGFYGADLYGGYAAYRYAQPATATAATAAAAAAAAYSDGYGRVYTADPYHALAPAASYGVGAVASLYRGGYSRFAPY
UniProt O15211: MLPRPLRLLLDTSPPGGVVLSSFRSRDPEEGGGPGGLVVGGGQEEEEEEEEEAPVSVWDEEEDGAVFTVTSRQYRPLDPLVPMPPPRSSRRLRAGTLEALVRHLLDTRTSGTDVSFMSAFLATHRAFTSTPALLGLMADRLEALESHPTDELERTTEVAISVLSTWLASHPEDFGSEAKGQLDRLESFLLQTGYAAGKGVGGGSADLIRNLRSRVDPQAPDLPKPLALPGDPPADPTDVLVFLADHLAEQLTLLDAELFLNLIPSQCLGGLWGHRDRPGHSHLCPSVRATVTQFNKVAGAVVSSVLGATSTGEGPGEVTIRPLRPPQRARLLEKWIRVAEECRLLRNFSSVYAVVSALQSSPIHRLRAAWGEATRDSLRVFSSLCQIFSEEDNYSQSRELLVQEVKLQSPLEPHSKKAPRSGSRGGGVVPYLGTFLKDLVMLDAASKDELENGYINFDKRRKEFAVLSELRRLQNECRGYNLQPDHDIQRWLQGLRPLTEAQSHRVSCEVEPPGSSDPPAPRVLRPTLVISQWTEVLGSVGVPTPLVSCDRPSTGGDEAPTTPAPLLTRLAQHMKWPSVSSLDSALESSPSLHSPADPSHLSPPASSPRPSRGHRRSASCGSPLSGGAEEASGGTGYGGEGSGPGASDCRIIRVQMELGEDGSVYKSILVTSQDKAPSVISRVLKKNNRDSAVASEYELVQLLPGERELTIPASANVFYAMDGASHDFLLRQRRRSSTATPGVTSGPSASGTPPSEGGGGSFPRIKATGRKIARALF
UniProt P51606: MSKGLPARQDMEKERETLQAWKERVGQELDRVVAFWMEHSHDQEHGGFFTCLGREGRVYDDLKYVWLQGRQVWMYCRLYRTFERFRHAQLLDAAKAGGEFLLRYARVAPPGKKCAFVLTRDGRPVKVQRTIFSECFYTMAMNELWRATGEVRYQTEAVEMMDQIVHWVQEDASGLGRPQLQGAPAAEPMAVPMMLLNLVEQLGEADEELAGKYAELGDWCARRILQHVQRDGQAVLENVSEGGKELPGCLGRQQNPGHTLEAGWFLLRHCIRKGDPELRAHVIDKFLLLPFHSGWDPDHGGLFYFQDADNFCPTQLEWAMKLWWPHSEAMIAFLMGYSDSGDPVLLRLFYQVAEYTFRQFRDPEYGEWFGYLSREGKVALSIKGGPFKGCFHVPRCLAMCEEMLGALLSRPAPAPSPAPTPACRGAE
UniProt Q96EN9: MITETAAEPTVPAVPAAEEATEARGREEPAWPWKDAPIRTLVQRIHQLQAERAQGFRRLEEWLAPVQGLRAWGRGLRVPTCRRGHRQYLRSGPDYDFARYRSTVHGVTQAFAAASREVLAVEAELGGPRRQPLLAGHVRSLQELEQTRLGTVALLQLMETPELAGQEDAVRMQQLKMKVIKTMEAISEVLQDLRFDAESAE
UniProt P40937, whole entry, looked up: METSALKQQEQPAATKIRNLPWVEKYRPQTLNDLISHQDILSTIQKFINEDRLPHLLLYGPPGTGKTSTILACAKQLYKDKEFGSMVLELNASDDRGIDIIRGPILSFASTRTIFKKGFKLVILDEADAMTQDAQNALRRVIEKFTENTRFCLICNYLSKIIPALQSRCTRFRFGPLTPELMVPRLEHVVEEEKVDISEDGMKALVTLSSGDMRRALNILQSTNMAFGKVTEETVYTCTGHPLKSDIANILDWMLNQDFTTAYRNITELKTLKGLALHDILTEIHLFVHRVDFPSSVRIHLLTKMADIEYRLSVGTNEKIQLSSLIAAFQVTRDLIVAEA
UniProt Q02833: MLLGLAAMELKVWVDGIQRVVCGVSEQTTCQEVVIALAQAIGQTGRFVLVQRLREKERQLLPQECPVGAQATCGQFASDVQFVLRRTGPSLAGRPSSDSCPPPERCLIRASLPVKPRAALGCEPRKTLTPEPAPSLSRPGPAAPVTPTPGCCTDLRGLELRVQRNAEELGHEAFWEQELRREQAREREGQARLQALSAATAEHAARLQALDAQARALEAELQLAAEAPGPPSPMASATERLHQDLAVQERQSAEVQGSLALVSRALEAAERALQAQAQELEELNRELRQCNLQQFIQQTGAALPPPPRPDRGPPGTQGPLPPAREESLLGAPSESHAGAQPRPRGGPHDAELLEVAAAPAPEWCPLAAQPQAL
UniProt Q8TC12: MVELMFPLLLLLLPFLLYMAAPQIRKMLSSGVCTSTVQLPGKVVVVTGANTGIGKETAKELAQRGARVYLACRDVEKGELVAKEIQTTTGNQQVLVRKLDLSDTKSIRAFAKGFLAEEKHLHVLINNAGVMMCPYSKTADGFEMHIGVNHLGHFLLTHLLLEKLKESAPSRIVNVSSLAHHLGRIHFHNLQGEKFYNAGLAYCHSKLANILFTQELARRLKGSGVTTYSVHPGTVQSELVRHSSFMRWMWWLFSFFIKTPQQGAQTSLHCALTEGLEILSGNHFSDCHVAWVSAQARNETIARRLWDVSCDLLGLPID

Assays:
Assay in all cases: log2 fold change, soluble protein after heating vs DMSO (PISA); higher = thermal stabilisation; K562 lysate, 10 uM; active = over 0.2 and 3.5 SD of the protein, either way, in both replicates (recomputed)
[1] = compound: Cc1sc2c(c1C)C(c1ccc(Cl)cc1)=N[C@@H](CC(=O)OC(C)(C)C)c1nnc(C)n1-2
Outline: (§1)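 Quantification was by TMTpro 16plex LC-MS/MS with equalised channel sums, applied to the supernatant after 21,000xg for 90 min. Samples were crude K562 extract at 1 mg/mL protein in PBS pH 7.4 with 1 mM MgCl2, treated with 10 μM compound for 30 min, heated for 3 min across 48°C-58°C, pooled and brought to 0.5% NP-40 at 4°C. Values are log-two fold changes in thermal stability relative to solvent controls, from duplicates.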

[2] = compound: c1ccc([C@@H]2C[C@H]2NC2CCNCC2)cc1
Outline: as §1

[3] = compound: CC1=C2C(=CC=C1)N=C(N(C2=O)C3=CC=CC=C3C)CN4C=NC5=C(N=CN=C54)N
Outline: as §1

[4] = compound: C1=CC=C(C=C1)[C@H](COC2=CC3=C(C=C2)NC(=O)N3)NC(=O)C4=CC=CN(C4=O)CC5=CC(=C(C=C5)F)F
Outline: as §1

[5] = compound: CC1=C(SC2=C1C(=N[C@H](C3=NN=C(N32)C)CC(=O)N)C4=CC=C(C=C4)Cl)C
Outline: as §1

For RAVER2 (UniProt Q9HCJ3), the log2 fold change [1] was inactive: 0.048 and the log2 fold change [2] was inactive: -0.147.

In the case of RBM48 isoform 2 (UniProt Q5RL73), the log2 fold change [3] is reported as inactive: -0.107, the log2 fold change [1] is reported as inactive: 0.027 and the log2 fold change [2] is reported as inactive: -0.119.

For RBBP4 isoform 4 (UniProt Q09028), the log2 fold change [2] was inactive: 0.221.

RBM18 (UniProt Q96H35) was tested, and the log2 fold change [3] was inactive: -0.026 and the log2 fold change [2] was inactive: -0.027.

In the case of REXO1 (UniProt Q8N1G1), the log2 fold change [4] is reported as inactive: -0.015, the log2 fold change [5] is reported as inactive: 0.055 and the log2 fold change [2] is reported as inactive: 0.328.

With RBFOX2 isoform 8 (UniProt O43251) the log2 fold change [4] was inactive: 0.027, the log2 fold change [5] was inactive: 0.033 and the log2 fold change [1] was inactive: -0.04. The log2 fold change [2] was inactive: 0.086.

With RGL2 (UniProt O15211) the log2 fold change [1] was inactive: 0.009 and the log2 fold change [2] was inactive: 0.024.

In the case of RENBP (UniProt P51606), the log2 fold change [4] is reported as inactive: 0.021, the log2 fold change [5] is reported as inactive: 0.021 and the log2 fold change [3] is reported as inactive: 0.001. For the same target, the log2 fold change [1] was inactive: -0.052 and the log2 fold change [2] was inactive: -0.002.

REX1BD (UniProt Q96EN9) was tested, and the log2 fold change [1] was inactive: -0.046 and the log2 fold change [2] was inactive: 0.092.

For RFC5 (UniProt P40937), the log2 fold change [4] was inactive: -0.024, the log2 fold change [5] was inactive: 0.018 and the log2 fold change [3] was inactive: 0.041. The log2 fold change [1] was inactive: 0.034 and the log2 fold change [2] was inactive: 0.027.

In the case of RBP4 (UniProt P02753), the log2 fold change [4] is reported as inactive: 0.105, the log2 fold change [5] is reported as inactive: -0.126 and the log2 fold change [2] is reported as inactive: 0.007.

With RASSF7 (UniProt Q02833) the log2 fold change [4] was inactive: -0.034, the log2 fold change [5] was inactive: 0.034 and the log2 fold change [2] was inactive: 0.075.

For RDH11 (UniProt Q8TC12), the log2 fold change [3] was inactive: 0.064, the log2 fold change [1] was inactive: 0.069 and the log2 fold change [2] was inactive: -0.085.
